Measured values published in PubChem BioAssay AID2073 (Sanford-Burnham Center for Chemical Genomics, 2009).
In all, about 290,000 compounds went through this assay and about 570 (0.2%) were called active. Inconclusive means that the source gave no clear call. Such entries were picked first, then a sample of the others. Rule as the data show it: active = inhibition mostly above about 51% (no sharp cut-off); inconclusive = no clear call, values can overlap the other calls; inactive = mostly below about 53%.

Protein sequences, listed by entry. Tags and fused reporters are not part of them.
UniProt Q00975, whole entry, looked up: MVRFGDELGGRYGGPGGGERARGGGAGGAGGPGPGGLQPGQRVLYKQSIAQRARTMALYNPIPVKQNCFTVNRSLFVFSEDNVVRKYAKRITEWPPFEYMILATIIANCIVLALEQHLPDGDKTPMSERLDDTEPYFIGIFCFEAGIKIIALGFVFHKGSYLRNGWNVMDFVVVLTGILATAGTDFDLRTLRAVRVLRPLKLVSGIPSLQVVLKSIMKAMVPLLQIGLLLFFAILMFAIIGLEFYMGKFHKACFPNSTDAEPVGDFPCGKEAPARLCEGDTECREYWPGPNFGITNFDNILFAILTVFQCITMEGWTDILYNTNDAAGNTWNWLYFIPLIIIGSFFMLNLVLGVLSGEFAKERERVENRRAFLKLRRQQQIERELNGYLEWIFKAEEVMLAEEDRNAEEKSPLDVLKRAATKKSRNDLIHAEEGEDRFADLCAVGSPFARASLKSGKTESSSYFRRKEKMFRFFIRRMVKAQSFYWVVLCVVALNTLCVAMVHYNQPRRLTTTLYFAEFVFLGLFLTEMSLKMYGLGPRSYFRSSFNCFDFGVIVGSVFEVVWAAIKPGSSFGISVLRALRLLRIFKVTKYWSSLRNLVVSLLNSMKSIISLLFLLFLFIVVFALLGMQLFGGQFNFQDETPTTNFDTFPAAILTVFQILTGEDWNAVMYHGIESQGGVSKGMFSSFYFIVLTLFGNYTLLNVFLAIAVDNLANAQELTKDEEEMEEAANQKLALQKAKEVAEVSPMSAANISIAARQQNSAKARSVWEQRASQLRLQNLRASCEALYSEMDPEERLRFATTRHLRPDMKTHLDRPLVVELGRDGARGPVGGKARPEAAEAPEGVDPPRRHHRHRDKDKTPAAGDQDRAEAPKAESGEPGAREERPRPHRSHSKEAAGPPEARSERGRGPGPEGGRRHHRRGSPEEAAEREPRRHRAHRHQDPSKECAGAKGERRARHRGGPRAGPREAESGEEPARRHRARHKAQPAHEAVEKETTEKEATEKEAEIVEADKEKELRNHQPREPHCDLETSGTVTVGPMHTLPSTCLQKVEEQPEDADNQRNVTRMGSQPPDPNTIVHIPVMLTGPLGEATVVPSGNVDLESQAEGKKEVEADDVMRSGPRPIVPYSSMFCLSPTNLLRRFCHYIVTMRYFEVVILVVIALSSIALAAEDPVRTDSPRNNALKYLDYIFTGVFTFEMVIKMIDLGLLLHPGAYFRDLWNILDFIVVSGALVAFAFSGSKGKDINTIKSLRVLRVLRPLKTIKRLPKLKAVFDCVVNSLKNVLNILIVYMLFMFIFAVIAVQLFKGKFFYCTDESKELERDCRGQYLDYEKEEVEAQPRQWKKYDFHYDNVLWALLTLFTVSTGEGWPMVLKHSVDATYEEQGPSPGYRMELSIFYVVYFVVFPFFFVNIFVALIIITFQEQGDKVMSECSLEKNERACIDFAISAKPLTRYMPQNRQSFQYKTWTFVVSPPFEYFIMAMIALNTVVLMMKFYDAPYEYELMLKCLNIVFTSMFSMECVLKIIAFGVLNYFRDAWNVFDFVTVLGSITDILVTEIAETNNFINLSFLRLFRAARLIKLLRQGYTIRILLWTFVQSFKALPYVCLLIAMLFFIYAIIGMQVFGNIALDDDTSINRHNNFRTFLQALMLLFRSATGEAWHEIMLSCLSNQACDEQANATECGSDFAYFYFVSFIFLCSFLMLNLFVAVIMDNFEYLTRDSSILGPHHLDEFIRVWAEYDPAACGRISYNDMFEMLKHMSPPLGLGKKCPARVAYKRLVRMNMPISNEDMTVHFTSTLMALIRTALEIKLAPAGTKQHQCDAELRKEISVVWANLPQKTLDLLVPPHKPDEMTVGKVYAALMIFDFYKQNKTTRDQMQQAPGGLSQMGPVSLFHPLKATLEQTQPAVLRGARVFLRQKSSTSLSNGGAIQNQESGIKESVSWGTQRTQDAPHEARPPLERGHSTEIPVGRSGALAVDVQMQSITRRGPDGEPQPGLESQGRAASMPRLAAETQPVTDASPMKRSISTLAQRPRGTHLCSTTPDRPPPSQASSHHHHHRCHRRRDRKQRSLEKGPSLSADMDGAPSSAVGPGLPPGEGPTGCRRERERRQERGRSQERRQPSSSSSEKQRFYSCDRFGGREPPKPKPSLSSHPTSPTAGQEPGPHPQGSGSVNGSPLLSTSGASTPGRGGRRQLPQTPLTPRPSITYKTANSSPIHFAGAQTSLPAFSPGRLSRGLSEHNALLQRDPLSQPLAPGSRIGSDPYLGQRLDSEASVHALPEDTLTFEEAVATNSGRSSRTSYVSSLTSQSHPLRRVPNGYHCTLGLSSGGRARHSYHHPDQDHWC

Biological target: Voltage-dependent N-type calcium channel subunit alpha-1B (Homo sapiens) (UniProt Q00975)
Assay: disruptors of CaV2.2 binding to Mint1 – biochemical, HTRF (AID 2073)
Details: HTRF protein-protein interaction, Mint1-CaV2.2; at 20 µM; hits give high values

inhibition, inactive:
CCN(C(=O)COC(=O)c1c(C)nn(-c2ccccc2)c1C)C1CCS(=O)(=O)C1 (stereo not given) 6.4%
Cc1ccc(S(=O)(=O)N2c3ccccc3OCC2C(C)(C)C)cc1 (stereo not given) 1.7%
CC1CCCN(C(=O)c2ccc3c(c2NCCO)C(=O)c2ccccc2C3=O)C1 (stereo not given) -10.5%
CCn1c(SCC(=O)N2CCC(C)CC2)nc2c1c(=O)n(C)c(=O)n2C 2.5%
CN(C)C=Nc1c(Br)cc(Br)c2nonc12 19.7%
Cc1ccc(N2C(=O)N3[C@H](c4ccc(F)cc4)[C@@H]4C(=O)N(C5CCCCC5)C(=O)[C@@H]4[C@]3(C)C2=O)cc1 3.5%

inhibition, inconclusive:
Cn1cccc1Cc1nnc(SCC(=O)Nc2nccs2)n1CCc1ccccc1 77.5%
COc1ccccc1-n1c(SCC(=O)NCC2CCCO2)nc2c([nH]c3ccccc32)c1=O (stereo not given) 78.8%
CCC(CC)NC(=O)COC(=O)c1ccc(OCC(=O)Nc2ccccc2OC)c(OC)c1 55.9%
Cn1c(SCc2ccccc2)nnc1-c1ccc(O)cc1 60.9%
O=C(CN1CCCc2ccccc21)N/N=C/c1ccc(O)cc1O 54.7%
COc1ccc(-c2nc(CS(=O)CC(=O)NC(C)CCc3ccccc3)c(C)o2)cc1OC (stereo not given) 70.6%
COC(=O)/C=C1\S/C(=N/N=C/c2ccc(Cl)cc2)NC1=O 64.8%
O=C(CC(Nc1ccccc1)c1ccc(F)cc1)c1ccccc1 (stereo not given) 58.2%
CCCCCC(=O)N1CC2(CC(c3cccc(NC(=O)COc4ccc(Cl)cc4)c3)=NO2)C[C@@H]1C(N)=O (stereo not given in full) 69%
Cc1nc(C)c(-c2ccc(SCC(=O)Nc3cccc(F)c3)nn2)s1 79.5%
Cc1cc(C)nc(NCCO)n1 88.5%
COc1cccc2c(=O)n(CC(=O)Nc3ccc(F)cc3)ccc12 53.3%
O=[N+]([O-])c1cc(/C=N/O)ccc1N1CCCC1 84.2%
CCN(CC)CCNC(=O)c1ccc(NC(=O)c2ccc(F)cc2F)cc1 76.6%
Nc1[nH]c(N=NC(=O)c2ccccc2O)c2ccccc12 57.5%
C=CCn1c(=O)c(C(=O)Nc2cccnc2)c(O)c2ccccc21 89.1%
O=C(Cn1ccsc1=NC(=O)C(F)(F)F)c1ccccc1 60.3%
O=C(CNCC1CCCO1)Nc1ccccc1N1CCOCC1 (stereo not given) 84.6%
Cc1ccccc1/C=N/NC(=O)Cc1ccc(Cl)cc1 64.9%
CCCc1nn(C)c(C(=O)Nc2ccc(Cl)cc2)c1Cl 60.3%
COc1ccccc1Nc1ncc(C(=O)N2CCN(Cc3ccc(OC)c(OC)c3OC)CC2)c2ccccc12 52.4%
CCCCN(C)CCCNC(=O)CN1C(=O)CSc2ccc(S(=O)(=O)N3CCOCC3)cc21 53.7%
Nc1nc(SCC(=O)NCCC(c2ccccc2)c2ccccc2)n[nH]1 60.7%
O=C(NCc1ccco1)C(=O)c1cn(CC(=O)N2CCCCCC2)c2ccccc12 53.4%
COc1ccccc1CNC(=O)Cn1nnc(-c2ccncc2)n1 50.2%
O=C1S/C(=C\C=C\c2ccco2)C(=O)N1c1ccccc1 64.5%
CC(=O)Oc1ccc(C(=O)[C@H]2[C@H]3C(=O)N(c4ccc5ccccc5c4)C(=O)[C@H]3[C@@H]3C=CC=NN32)cc1 74.6%
OCC1(CO)COC2(CCCC2)N1 55.9%
CCOc1ccc(CN2CCNC(=O)C2CC(=O)OC)cc1 (stereo not given) 63%
Cc1ccsc1/C=N/NC(=O)Nc1ccccc1 52.9%
O=C(CSc1ncnc2c1oc1ccccc12)Nc1cccc(F)c1 61.3%
Nc1nc(C(=O)N2CCOCC2)nn1S(=O)(=O)c1ccccc1 89.5%
O=C(O)c1ccc(N2C(=O)CC(SC(=NCc3ccc4c(c3)OCO4)Nc3ccccc3)C2=O)cc1 (stereo not given) 53.4%
CCCCC(=O)Nc1ccc2c(c1)nc1n2CCN(CCOC)C1 65%
Cc1ccc(-n2nc3ccc(NC(=S)NC(=O)/C=C/c4ccco4)cc3n2)cc1 57.3%
COc1cccc(/C=C2\SC(=N)N(c3ccc(F)cc3)C2=O)c1 61.4%
COc1ccc(C(F)(F)F)cc1N/C=C\c1nnnn1-c1ccccc1 57.4%
COc1ccc(-c2ccnc3c(C#N)cnn23)cc1 60.6%
CC1=CC(C)(C)C(C(=O)O)C(C(=O)O)C1 (stereo not given) 79.7%
CC(C)n1c(N)c(C#N)c2ccc([N+](=O)[O-])cc2c1=O 55.1%
O=C(NCCCn1ccnc1)C(=O)NCC1OCCN1S(=O)(=O)c1ccc2c(c1)OCCO2 (stereo not given) 52.9%
O=C(N/N=C/c1c(Nc2cccc(C(F)(F)F)c2)nc2ccccn2c1=O)c1ccccc1 70.8%
CC(=O)C1=C(O)CC(C)(C)CC1=NCc1nc2ccccc2[nH]1 77.4%
Cn1c(=O)c(=O)n(C)c2cc(S(=O)(=O)N3CCc4ccccc43)ccc21 58.2%
COc1ccc(OC)c(S(=O)(=O)NCCC(C)C)c1 97.1%
O=C1CN(C(=O)N[C@@H](Cc2ccccc2)C(=O)N[C@H](C(=O)O)c2ccccc2)c2ccccc2N1 51%
COc1ccc(-c2ccc(NS(=O)(=O)c3cc([N+](=O)[O-])c(C)c([N+](=O)[O-])c3)cc2)nn1 53%
Nc1cc(-c2ccc(OC(F)(F)F)cc2)nn1-c1ccc(Cl)c(Cl)c1 63.9%
COC(=O)c1ccc(OC)c(CSc2nnc(COc3ccc(Cl)cc3)o2)c1 58.3%

Sorted by length of the SMILES (largest number first): part of the list above
inhibition, inconclusive:
O=C1CN(C(=O)N[C@@H](Cc2ccccc2)C(=O)N[C@H](C(=O)O)c2ccccc2)c2ccccc2N1 51%
CC(=O)C1=C(O)CC(C)(C)CC1=NCc1nc2ccccc2[nH]1 77.4%
C=CCn1c(=O)c(C(=O)Nc2cccnc2)c(O)c2ccccc21 89.1%
O=C(Cn1ccsc1=NC(=O)C(F)(F)F)c1ccccc1 60.3%
